Experimental data taken from PubChem BioAssay AID2685 (National Center for Advancing Translational Sciences (NCATS), 2010).
Among all 320,000 compounds or so, about 2,100 (0.66%) were called active. Inconclusive results, whose numbers are uncertain, are shown with a selection of clear calls. Calls come from the whole dose curve; as a rule, active = well fitted inhibition curve with a large enough effect in the signal ratio, with a control signal flat (not every such curve was filed as active); inconclusive = small, poorly fitted or top-dose-only effect, or effect the other way, or a change in a side signal; inactive = flat fitted curve, though single readings scatter; the % refers to the signal ratio. A potency beside an inconclusive call is a rough fit, not a confirmed value.

assay: qHTS Assay for Lipid Storage Modulators in Drosophila S3 Cells; settings: BODIPY lipid droplet fluorescence, 18-24 h, cells fed with added oleic acid; lipid storage change, negative = inhibition: at 46.1 µM (top of the series) unless noted
Summary of the method: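 Laser-scanning cytometry quantifies lipid droplet accumulation (500–530 nm total intensity; droplet/cell object ratio) in oleic acid-fed (400 uM added) Drosophila S3 cells treated with a concentration series. 20 uM Triacsin C defined 100% inhibition.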
% is set by controls: 0 for no effect and ±100 for the full control effect; potency is the fitted concentration of half-maximal effect.

| SMILES | lipid storage change, negative = inhibition | Potency |
| --- | --- | --- |
| O=C(CN1CCOCC1)Nc1ccc2c(c1)OC(F)(F)O2 | inconclusive: -22.3% |  |
| Cc1ccc2c(c1)C(c1ccccc1)N(C(=O)c1ccc(F)cc1)CC(=O)N2 (configuration not stated) | inconclusive: 10.6% |  |
| Cc1ccc(-n2nc3c(c2NC(=O)c2cccs2)CS(=O)(=O)C3)c(C)c1 | inconclusive: -16.5% |  |
| CCCCCC(=O)Nc1cccc(C2=NOC3(C2)C[C@@H](C(N)=O)N(C(=O)c2ccc(OC)cc2)C3)c1 (some centres not stated) | inconclusive: 7.86% |  |
| N#Cc1c(Oc2ccc3ccccc3c2)sc(C(=O)c2ccccc2)c1N |  | inconclusive: 4.61 µM [falling, full curve, poor fit] |
| CC(O)Cn1nc([N+](=O)[O-])nc1N (configuration not stated) | inconclusive: 19.9% |  |
| COc1cccc(C(C#N)N2CCOCC2)c1 (configuration not stated) | inconclusive: 21.5% |  |
| O=Cc1ccc(OCC(=O)Nc2ccccc2-c2ccccc2)cc1 | inactive: 8.41% |  |
| CCOC(=O)c1c(C)[nH]c(C)c1S(=O)(=O)NCC1CCN(Cc2cccc(F)c2)CC1 |  | inconclusive: 16.4 µM [activator, partial curve] |
| CCOC(=O)c1ccccc1NC(=O)c1ccccc1NS(C)(=O)=O |  | inconclusive: 0.146 µM [activator, full curve, poor fit] |
| C=CCn1c(SCC(=O)NCC2CCCO2)nnc1-c1ccncc1 (configuration not stated) | inconclusive: 19.4% |  |
| c1cn(CCCNc2ncnc3sc4c(c23)CCC4)cn1 |  | inconclusive: 0.116 µM [activator, full curve, poor fit] |
| CCC1CN(C(=O)NCc2ccccc2)c2cc(Cl)ccc2O1 (configuration not stated) | inconclusive: 3.5% |  |
| COc1ccc(CNC(=O)Nc2cccc(C(F)(F)F)c2)cc1OC | inconclusive: -29.3% |  |
| CCOC(=O)NC(Nc1nc2ccccc2s1)(C(=O)OCC)C(F)(F)F (configuration not stated) | inconclusive: 34.7% |  |
| CNC(=O)CSCc1cnn(-c2ccccc2)c1-n1cccc1 | inconclusive: 2.42% |  |
| CCOC(=O)c1ccc(NC(=O)CSc2ccc(-c3ccccn3)nn2)cc1 | inconclusive: -36.3% |  |
| CCOc1ccc2[nH]c3c(N4CCc5ccccc5C4)ncnc3c2c1 |  | inconclusive: 20.6 µM [cytotoxic, single point] |
| Cc1ccc(C(C)C)c(OCCCN2CCc3ccccc3C2)c1 |  | active: 14.6 µM |
| O=C(/C=C/c1ccc(Cl)cc1Cl)NC(=S)Nc1ccccn1 | inconclusive: 32.3% |  |
| CCCCC(=O)Nc1cccc(NC(=S)NC(=O)Cc2ccccc2)c1 |  | inconclusive: 16.4 µM [falling, single point] |
| O=S(=O)(Nc1nc(-c2sccc2Cl)cs1)c1cc(Cl)ccc1Cl | inconclusive: -18.9% |  |

Taken from above:
For lipid storage change, negative = inhibition, CCCCCC(=O)Nc1cccc(C2=NOC3(C2)C[C@@H](C(N)=O)N(C(=O)c2ccc(OC)cc2)C3)c1 (some centres not stated) has the entry inconclusive: 7.86%
For lipid storage change, negative = inhibition, CCOC(=O)NC(Nc1nc2ccccc2s1)(C(=O)OCC)C(F)(F)F (configuration not stated) has the entry inconclusive: 34.7%
